We go through 54 compounds from PubChem BioAssay AID651804 (National Center for Advancing Translational Sciences (NCATS), 2012).

Protein sequences, listed by entry. Tags and fused reporters are not part of them. Lines headed by an entry give the natural chain unless they say otherwise; changes in a name come on top.
UniProt P11308: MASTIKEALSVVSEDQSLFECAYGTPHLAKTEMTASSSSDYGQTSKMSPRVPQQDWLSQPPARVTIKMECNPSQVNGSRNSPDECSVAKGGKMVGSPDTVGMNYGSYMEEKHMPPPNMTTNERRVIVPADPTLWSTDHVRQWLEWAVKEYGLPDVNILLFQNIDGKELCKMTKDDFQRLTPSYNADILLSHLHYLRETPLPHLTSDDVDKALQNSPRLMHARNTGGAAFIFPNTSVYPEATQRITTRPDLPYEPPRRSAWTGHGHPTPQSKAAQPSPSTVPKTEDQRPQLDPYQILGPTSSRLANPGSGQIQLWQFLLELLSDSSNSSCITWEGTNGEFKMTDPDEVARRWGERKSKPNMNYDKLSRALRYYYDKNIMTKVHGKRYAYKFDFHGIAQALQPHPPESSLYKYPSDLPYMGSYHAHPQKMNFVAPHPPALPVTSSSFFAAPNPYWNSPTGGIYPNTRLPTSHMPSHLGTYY

Among all 1,200 compounds or so, about 20 (2%) were called active. Not shown: some 23% with an inconclusive outcome. Calls come from the whole dose curve; as a rule, active = well fitted inhibition curve with a large enough effect; inconclusive = small, poorly fitted or top-dose-only effect; inactive = no such curve, though single readings can be large or run the other way. Some of the results follow.

This test concerns the target Transcriptional regulator ERG (Homo sapiens) (UniProt P11308). The experiment in a line: qHTS for Small Molecule Inhibitors of the ERG Ets/DNA interaction: HTRF assay against cherry picks. The settings on record: His-ERG Ets domain with biotin-DNA; series mostly up to 154 µM; activity change, negative = inhibition: at the top concentration. The procedure, abridged:
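HTRF of His-tagged ERG Ets domain (200 nM solution) with biotin-DNA (200 nM solution) in 300mM KCl, 50mM Tris-HCl pH 7.5, 1mM EDTA, 1mM DTT; 10 min RT. Anti-His cryptate donor plus streptavidin acceptor added, 10 min, FRET read at 615/665 nm.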
On to `COc1ccc(OC)c(NS(=O)(=O)c2cc3c4c(c2)CCN4C(=O)CC3)c1`, for which the “activity change, negative = inhibition” value is inactive: -17%.
`Cc1[nH]c(=O)[nH]c(=O)c1/C=N/NC(=O)[C@H](C)N`: the “activity change, negative = inhibition” value was inactive: -15.9%.
In the case of `Cc1cc(C)nc(NC(=O)c2ccc(Cl)cc2Cl)n1`, the “activity change, negative = inhibition” value was inactive: -7.8%.
Regarding `COc1ccc(OCCN2CCN(C(=O)c3ccc(OC(F)F)c(OC)c3)CC2)cc1`, the “activity change, negative = inhibition” value was inactive: -24.6%.
As for `CCNc1nc(NC(C)(C)C)nc(N2CCCCC2)n1`, the figure is inactive: -24.9%.
Regarding `Cc1ccc(C)c(S(=O)(=O)N2CC(=O)N(CCc3ccccc3)C(=O)C2)c1`, the “activity change, negative = inhibition” value was inactive: -3.45%.
As for `O=C(CSc1nnc(-c2cccnc2)o1)Nc1cccc(Cl)c1`, the “activity change, negative = inhibition” value was inactive: -18.7%.
For `Cc1cccc(OCC(=O)N(Cc2ccc(C(C)(C)C)cc2)Cc2ccco2)c1`, the “activity change, negative = inhibition” value was inactive: -14.2%.
As for `CC(C)(C)c1ccc(OCC(=O)Nc2cccc(S(=O)(=O)NC3=NCCCCC3)c2)cc1`, the figure is inactive: -9.5%; as for `O=C(Nc1ccc2c(c1)OCO2)N1CCN(c2ccccc2)CC1`, inactive: -24.7%.
In the case of `O=C(NC(=S)Nc1cccnc1)c1cc2ccccc2o1`, the “activity change, negative = inhibition” value was inactive: -6.68%.
In the case of `O=C(Nc1ccccc1Br)c1ccccc1-c1ccccc1` it was inactive: -19%.
On to `CCCCNc1cc(F)nc(N)n1`, for which the “activity change, negative = inhibition” value was inactive: -27.4%.
In the case of `O=C(CSc1ccccc1)NCc1ccc(F)cc1` it was inactive: -4.83%; in that of `Cc1ccc2nc3c(c(C(=O)OC4CCOC4=O)c2c1)CCCC3` (centres undefined), inactive: -16%; in that of `Cc1ccc2cccc(OCCCOc3ccccc3F)c2n1`, inactive: -18.5%.
In the case of `CCCCOC(=O)c1ccc(N)cc1` it was inactive: -0.743%; in that of `Cc1cnc(CNC(=O)CC2C(=O)NCCN2Cc2ccccc2C(F)(F)F)cn1` (centres undefined), inactive: -23%; in that of `COc1ccc(Cc2nnc(Nc3ccccc3)s2)cc1Br`, inactive: -23.8%.
`O=C(Cn1cc2c(n1)CCCC2)NCc1ccccn1`: the “activity change, negative = inhibition” value was inactive: -0.318%.
As to `Clc1cccc(OCCCN2CCCC2)c1Cl`, the “activity change, negative = inhibition” value is inactive: -28.1%.
Take `O=C(O)COc1ccc(F)cc1Br`: the “activity change, negative = inhibition” value is inactive: 0.318%.
As for `CC(C)C(C(=O)O)N1CCS(=O)(=O)CC1` (centres undefined), the figure is inactive: -22.8%; as for `O=C(CC(c1ccccc1)c1cc(Cl)ccc1O)NCCCN1CCOCC1` (centres undefined), inactive: -25.3%.
With `OCCCC1CCCCN1Cc1nc(Cc2ccccc2Cl)no1` (centres undefined), the “activity change, negative = inhibition” value is inactive: -19.6%.
As for `CN(C(=O)COC(=O)c1cc(S(=O)(=O)N2CCOCC2)ccc1F)C1CCS(=O)(=O)C1` (centres undefined), the figure is inactive: -10.2%.
In the case of `CC(CN1CCCCC1)NC(=O)c1cccs1` (centres undefined) it was inactive: -23.2%.
For `CCOC(=O)NCc1ccc2c(c1)cc(C)n2C`, the “activity change, negative = inhibition” value was inactive: -29.8%.
With `Cc1cccc(NC(=O)CN2C(=O)CNC2=O)c1`, the “activity change, negative = inhibition” value was inactive: -0.637%.
As for `O=C(CN1C(=O)NC(c2ccc(F)cc2)C1=O)Nc1ccc2c(c1)OCCO2` (centres undefined), the figure is inactive: -20.4%; as for `Cc1cccc(-n2c(-c3ccccc3)c[nH]c2=S)c1C`, inactive: -29.7%.
Turning to `CN(C)c1nc(C=C(C#N)C#N)c(Cl)n1-c1ccc(F)cc1`, the “activity change, negative = inhibition” value is inactive: -21.9%.
Consider `Cc1occc1C(=O)NCCc1ccc(Cl)cc1`, for which the “activity change, negative = inhibition” value is inactive: 2.02%.
As for `COc1ccccc1NC(=O)Cn1c(=O)n(CCC(=O)NCC2CCCO2)c(=O)c2cc(OC)c(OC)cc21` (centres undefined), the figure is inactive: -9.76%.
Take `COc1ccc(S(=O)(=O)NCCNC(=O)N2CCOCC2)cc1`: the “activity change, negative = inhibition” value was inactive: -18%.
In the case of `O=[N+]([O-])c1ccc(Cc2ccc([N+](=O)[O-])cc2)cc1`, the “activity change, negative = inhibition” value is inactive: -13%.
In the case of `Cn1c(=O)c2[nH]cnc2n(C)c1=O` it was inactive: 10.9%; in that of `C/C(=N\Nc1ccc(C#N)cc1[N+](=O)[O-])c1ccc(C)o1`, inactive: -34.9%.
For `CC(=O)Nc1ccc(S(=O)(=O)NCCC(=O)OCC(=O)c2cc(C)ccc2C)cc1`, the “activity change, negative = inhibition” value was inactive: -11.2%.
As for `COc1ccc(S(=O)(=O)N2CCOCC2)cc1NC(=O)CSc1nnc2n1CCCCC2`, the figure is inactive: 0%; as for `O=C(NCC(=O)N(c1ccccc1)C(C(=O)NC1CCCCC1)c1cccnc1)c1ccco1` (centres undefined), inactive: -30.2%; as for `COc1ccc(NC(=O)NCc2ccccn2)c(OC)c1`, inactive: -13.8%.
Consider `COC(=O)c1ccc2c(=O)n(CCN3CCOCC3)c(SCC(=O)Nc3ccc(OC)cc3OC)nc2c1`, for which the “activity change, negative = inhibition” value was inactive: 3.98%.
As to `COc1ccc(OC)c(NC(=O)Cn2cnc3sc(C)c(S(=O)(=O)N4CCN(c5ccccc5OC)CC4)c3c2=O)c1`, the “activity change, negative = inhibition” value is inactive: -7.8%.
As for `CCOC(=O)CSc1nc2ccc(NC(=O)c3ccc(F)cc3)cc2s1`, the figure is inactive: 26.8%; as for `COc1ccc(-c2cccc(NS(=O)(=O)c3cc([N+](=O)[O-])ccc3C)c2)nn1`, inactive: -26.3%; as for `NCCNc1ccc2nnnn2n1`, inactive: -26.6%.
Take `Cc1cccn2c(CNCCc3ccccn3)c(C(=O)N3CCOCC3)nc12`: the “activity change, negative = inhibition” value was inactive: -25%.
With `COC(=O)c1ccc(/C=C2\Oc3ccccc3NC2=O)cc1`, the “activity change, negative = inhibition” value was inactive: -15.2%.
As for `O=S(=O)(Nc1nc2ccccc2nc1NCc1ccco1)c1cccs1`, the figure is inactive: -29.4%.
In the case of `CCOc1ccc(S(=O)(=O)N2CC(=O)Nc3ccccc32)cc1` it was inactive: -26.4%; in that of `O=C(CN1C(=O)c2ccccc2S1(=O)=O)NCCSCc1c(F)cccc1Cl`, inactive: -18%; in that of `COc1cccc(C(=O)OCC(=O)Nc2cc(C)on2)c1OC`, inactive: -0.743%.
In the case of `O=C(CNC(=S)N(CCCN1CCOCC1)Cc1cccs1)NC1CCCCC1` it was inactive: -25.3%.
